Source: PMC10114425
These are yes or no findings as the source states them, for the method shown. In cells and extracts the contact can be indirect.

Amino acid sequences for entries named in this document (tags omitted). A change or cut given only in a name is not applied to a line headed by its entry.
UniProt A6NJI1: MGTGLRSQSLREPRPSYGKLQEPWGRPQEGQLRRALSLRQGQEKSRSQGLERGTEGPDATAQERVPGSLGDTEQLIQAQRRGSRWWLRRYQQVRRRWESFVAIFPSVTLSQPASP
UniProt P84092: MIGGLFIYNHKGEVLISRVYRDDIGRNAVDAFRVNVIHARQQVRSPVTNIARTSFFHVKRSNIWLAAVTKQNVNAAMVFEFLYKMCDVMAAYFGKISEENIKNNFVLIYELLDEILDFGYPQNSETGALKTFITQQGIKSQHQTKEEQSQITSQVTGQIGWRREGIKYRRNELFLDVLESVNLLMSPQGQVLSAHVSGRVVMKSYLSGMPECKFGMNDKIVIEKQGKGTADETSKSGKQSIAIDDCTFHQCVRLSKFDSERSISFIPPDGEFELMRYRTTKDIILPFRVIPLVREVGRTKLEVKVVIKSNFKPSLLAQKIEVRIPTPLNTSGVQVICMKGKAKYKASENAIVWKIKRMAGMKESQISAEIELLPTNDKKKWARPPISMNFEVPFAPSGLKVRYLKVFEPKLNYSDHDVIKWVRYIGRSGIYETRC
UniProt Q96CW1: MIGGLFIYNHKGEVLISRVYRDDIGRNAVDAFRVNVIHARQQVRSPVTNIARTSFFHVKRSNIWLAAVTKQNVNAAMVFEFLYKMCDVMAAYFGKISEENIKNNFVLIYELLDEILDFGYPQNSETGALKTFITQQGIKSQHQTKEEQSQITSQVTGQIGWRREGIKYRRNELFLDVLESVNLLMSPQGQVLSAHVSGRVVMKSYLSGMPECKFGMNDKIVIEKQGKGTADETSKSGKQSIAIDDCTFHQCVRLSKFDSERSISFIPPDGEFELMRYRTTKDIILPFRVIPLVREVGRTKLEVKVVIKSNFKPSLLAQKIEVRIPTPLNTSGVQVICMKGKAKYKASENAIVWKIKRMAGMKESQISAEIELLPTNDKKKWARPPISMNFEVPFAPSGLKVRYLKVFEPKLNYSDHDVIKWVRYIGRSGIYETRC

Experiments:
mEmerald-FACI-ΔDxxxLI = mEmerald-FACI-ΔDxxxLI (UniProt A6NJI1); assay: co-IP; HepG2 cells transfected with mEmerald-FACI or mEmerald-FACI-ΔDxxxLI; NP-40 lysis buffer; precipitated with anti-GFP, blotted with anti-GFP and anti-AP2M1
mCherry-AP2M1 = mCherry-AP2M1 (UniProt P84092); assay: co-IP; AML12 cells expressing mCherry-AP2M1, transfected with mEmerald-FACI or mEmerald-FACI-ΔDxxxLI; precipitated with anti-mCherry, blotted with the indicated antibodies (Fig. S4)

Row | Substance | binding (mEmerald-FACI-ΔDxxxLI) | binding (mCherry-AP2M1)
1 | endogenous AP2M1 (from UniProt Q96CW1 1-435) | no binding | 
2 | mEmerald-FACI-ΔDxxxLI (from UniProt A6NJI1) |  | no binding
